{"source": "patent US6030783", "about": "“Photo-potentiation of cisplatin chemotherapy” (Massachusetts Institute of Technology)", "target": "T1, HMG domain B (of HMG1) (UniProt P63159)", "T1 sequence (looked up, limits assumed)": "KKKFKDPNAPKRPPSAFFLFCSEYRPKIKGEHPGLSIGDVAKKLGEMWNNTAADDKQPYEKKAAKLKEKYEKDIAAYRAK", "experiment": "EMSA", "details": "10-40 equiv protein; purified recombinant protein; protein details: expressed from pHB1 in E. coli BL21(DE3); label: 5'-32P; variant of 15Pt/15B cisplatin-modified 15-bp duplex", "note": "Negatives hold for the conditions tested. Protein sequences can lack the tags named with them."}
{"sequence": "CCTCTCTGGTTCTTC (double strand) [unplatinated 15-bp duplex]", "values": [{"measurement": "binding result", "result": "no binding"}]}
